PubChem BioAssay AID1224830 | NIAID | 2016
Shown is an unselected part of about 18,000 deposited reagents. Of all reagents, about 2,900 (16%) got an active call. 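Calls are made per well; low scores hint the gene aids the LPS response, high scores that it dampens it.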 Repeated entries: four replicate wells of each siRNA pool.

Purpose: 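Genes whose knock-down alters the TNF-alpha reporter response to LPS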 (primary screen)
System: human THP-1 monocytic leukaemia cells, TNF dual-luciferase reporter clone, PMA-differentiated to macrophage-like cells
Reagent: siRNA pool against human genes, 50 nM
Timing: LPS for 4 h, given about 3 days after siRNA transfection
Conditions: bacterial LPS (TLR4 ligand), 10 ng/ml
Measurement: 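TNF firefly reporter luminescence divided by renilla, normalised to the plate median, then turned into a robust z-score for each replicate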
Direction: TNF reporter robust z-score: higher = stronger TNF reporter response to LPS
Call rule: 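Each well counts as active if its z-score is over 2.8 or under -1.5; controls are left without a call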

no.	target gene	TNF reporter robust z-score	outcome
1	FBXO31 (GeneID 79791)	-2.23	active
2	FBXO31 (GeneID 79791)	-1.09	inactive
3	FBXO31 (GeneID 79791)	-1.39	inactive
4	FBXO31 (GeneID 79791)	-0.97	inactive
5	TONSL (GeneID 4796)	-1.26	inactive
6	TONSL (GeneID 4796)	-0.35	inactive
7	TONSL (GeneID 4796)	-0.51	inactive
8	TONSL (GeneID 4796)	0.49	inactive
9	GABPB1 (GeneID 2553)	0.5	inactive
10	GABPB1 (GeneID 2553)	0.28	inactive
11	GABPB1 (GeneID 2553)	0.62	inactive
12	GABPB1 (GeneID 2553)	0.07	inactive
13	LITAF (GeneID 9516)	-2.13	active
14	LITAF (GeneID 9516)	-1.75	active
15	LITAF (GeneID 9516)	-1.58	active
16	LITAF (GeneID 9516)	-0.96	inactive
17	ARHGAP29 (GeneID 9411)	1.79	inactive
18	ARHGAP29 (GeneID 9411)	0.32	inactive
19	ARHGAP29 (GeneID 9411)	0.56	inactive
20	ARHGAP29 (GeneID 9411)	0.8	inactive
21	GRID1 (GeneID 2894)	-0.46	inactive
22	GRID1 (GeneID 2894)	-0.56	inactive
23	GRID1 (GeneID 2894)	0.02	inactive
24	GRID1 (GeneID 2894)	0.55	inactive
25	PTMA (GeneID 5757)	-1	inactive
26	PTMA (GeneID 5757)	-1.06	inactive
27	PTMA (GeneID 5757)	-1.32	inactive
28	PTMA (GeneID 5757)	-1.38	inactive
29	AGFG1 (GeneID 3267)	-1.19	inactive
30	AGFG1 (GeneID 3267)	-1.02	inactive
31	AGFG1 (GeneID 3267)	-0.42	inactive
32	AGFG1 (GeneID 3267)	-0.85	inactive
33	PTER (GeneID 9317)	0.77	inactive
34	PTER (GeneID 9317)	-0.39	inactive
35	PTER (GeneID 9317)	0.51	inactive
36	PTER (GeneID 9317)	0	inactive
37	TOR1AIP1 (GeneID 26092)	0.36	inactive
38	TOR1AIP1 (GeneID 26092)	-1.26	inactive
39	TOR1AIP1 (GeneID 26092)	0.01	inactive
40	TOR1AIP1 (GeneID 26092)	0.17	inactive
41	GNL1 (GeneID 2794)	0.12	inactive
42	GNL1 (GeneID 2794)	0.15	inactive
43	GNL1 (GeneID 2794)	0.5	inactive
44	GNL1 (GeneID 2794)	0.42	inactive
45	TOP6BL (GeneID 79703)	0.05	inactive
46	TOP6BL (GeneID 79703)	-0.01	inactive
47	TOP6BL (GeneID 79703)	0.09	inactive
48	TOP6BL (GeneID 79703)	0.47	inactive
49	LHCGR (GeneID 3973)	-0.69	inactive
50	LHCGR (GeneID 3973)	1.7	inactive
51	LHCGR (GeneID 3973)	0.34	inactive
52	LHCGR (GeneID 3973)	1.46	inactive
53	KCNJ6 (GeneID 3763)	-0.34	inactive
54	KCNJ6 (GeneID 3763)	-0.11	inactive
55	KCNJ6 (GeneID 3763)	-0.16	inactive
56	KCNJ6 (GeneID 3763)	-0.62	inactive
57	STOX2 (GeneID 56977)	-1.49	inactive
58	STOX2 (GeneID 56977)	-0.71	inactive
59	STOX2 (GeneID 56977)	-0.55	inactive
60	STOX2 (GeneID 56977)	-1.04	inactive
61	CST1 (GeneID 1469)	1.31	inactive
62	CST1 (GeneID 1469)	0.05	inactive
63	CST1 (GeneID 1469)	0.35	inactive
64	CST1 (GeneID 1469)	-0.21	inactive
65	VIPAS39 (GeneID 63894)	-0.51	inactive
66	VIPAS39 (GeneID 63894)	-0.24	inactive
67	VIPAS39 (GeneID 63894)	-0.66	inactive
68	VIPAS39 (GeneID 63894)	1.19	inactive
69	PGA3 (GeneID 643834)	0.8	inactive
70	PGA3 (GeneID 643834)	0.53	inactive
71	PGA3 (GeneID 643834)	0.19	inactive
72	MOCS3 (GeneID 27304)	-1.17	inactive
73	MOCS3 (GeneID 27304)	-0.02	inactive
74	MOCS3 (GeneID 27304)	0.13	inactive
75	MOCS3 (GeneID 27304)	0.21	inactive
76	CSKMT (GeneID 751071)	-0.41	inactive
77	CSKMT (GeneID 751071)	0.29	inactive
78	CSKMT (GeneID 751071)	-0.37	inactive
79	CSKMT (GeneID 751071)	0.25	inactive
80	XAGE2 (GeneID 9502)	-0.6	inactive
81	XAGE2 (GeneID 9502)	-0.97	inactive
82	XAGE2 (GeneID 9502)	-0.04	inactive
83	XAGE2 (GeneID 9502)	-0.8	inactive
84	SNX1 (GeneID 6642)	-0.25	inactive
85	SNX1 (GeneID 6642)	-0.94	inactive
86	SNX1 (GeneID 6642)	-0.14	inactive
87	SNX1 (GeneID 6642)	0.57	inactive
88	TMED5 (GeneID 50999)	-0.44	inactive
89	TMED5 (GeneID 50999)	-0.7	inactive
90	TMED5 (GeneID 50999)	0.06	inactive
91	TMED5 (GeneID 50999)	-0.17	inactive
92	MFAP4 (GeneID 4239)	-0.92	inactive
93	MFAP4 (GeneID 4239)	-0.72	inactive
94	MFAP4 (GeneID 4239)	-0.9	inactive
95	MFAP4 (GeneID 4239)	-0.98	inactive
96	PIWIL3 (GeneID 440822)	-0.97	inactive
97	PIWIL3 (GeneID 440822)	1.56	inactive
98	PIWIL3 (GeneID 440822)	-0.28	inactive
99	PIWIL3 (GeneID 440822)	0.15	inactive
100	CYREN (GeneID 78996)	1.01	inactive
101	CYREN (GeneID 78996)	0.87	inactive
102	CYREN (GeneID 78996)	0.64	inactive
103	CYREN (GeneID 78996)	1.56	inactive
104	CPLX3 (GeneID 594855)	1.05	inactive
105	CPLX3 (GeneID 594855)	2.08	inactive
106	CPLX3 (GeneID 594855)	2.45	inactive
107	CPLX3 (GeneID 594855)	2.65	inactive
108	ZC4H2 (GeneID 55906)	0.27	inactive
109	ZC4H2 (GeneID 55906)	-0.05	inactive
110	ZC4H2 (GeneID 55906)	-0.36	inactive
111	ZC4H2 (GeneID 55906)	-0.22	inactive
